Data from US20120122679A1, “MESOIONIC PESTICIDES” (E. I. Du Pont De Nemours and Company, priority 2009, published 2012).
Where a name gives a salt, the structure may show the parent alone. Some of these results come from one statement about several compounds together.

Experiments:
Type in all cases: in vivo
[1] = system: corn planthopper (Peregrinus maidis); assay: Test B: control of corn planthopper on maize plant, contact and/or systemic; details: assessed after 6 days
[2] = system: potato leafhopper (Empoasca fabae); assay: Test C: control of potato leafhopper on Soleil bean plant, contact and/or systemic; details: assessed after 6 days
[3] = system: diamondback moth (Plutella xylostella); assay: Test A: control of diamondback moth on radish plant, foliar spray; details: assessed after 6 days, very good to excellent levels of control efficacy
[4] = system: green peach aphid (Myzus persicae); assay: Test F: control of green peach aphid on radish plant, contact and/or systemic; details: sprayed at 250 ppm; assessed after 6 days
Protocol: Test compounds were formulated using a solution containing 10% acetone, 90% water and 300 ppm X-77® Spreader Lo-Foam Formula non-ionic surfactant containing alkylarylpolyoxyethylene, free fatty acids, glycols and isopropanol (Loveland Industries, Inc. Greeley, Colorado, USA). The formulated compounds were applied in 1 mL of liquid through a SUJ2 atomizer nozzle with ⅛ JJ custom body (Spraying Systems Co. Wheaton, Ill., USA) positioned 1.27 cm (0.5 inches) above the top of each test unit. Test compounds were sprayed at 250 and/or 50 ppm, and replicated three times. After spraying of the formulated test compound, each test unit was allowed to dry for 1 h and then a black, screened cap was placed on top. The test units were held for 6 days in a growth chamber at 25° C. and 70% relative humidity. Plant feeding damage was then visually assessed based on foliage consumed.
For evaluating control of green peach aphid (Myzus persicae) through contact and/or systemic means, the test unit consisted, of a small open container with a 12-15-day-old radish plant inside. This was pre-infested by placing on a leaf of the test plant 30-40 aphids on a piece of leaf excised from a culture plant (cut-leaf method). The aphids moved onto the test plant as the leaf piece desiccated. After pre-infestation, the soil of the test unit was covered with a layer of sand
Test compounds were formulated and sprayed at 250 ppm and/or 50 ppm as described for Test A. The applications were replicated three times. After spraying of the formulated test compound, each test unit was allowed, to dry for 1 h and then a black, screened cap was placed, on top. The test units were held for 6 days in a growth chamber at 19-21° C. and 50-70% relative humidity. Each test unit was then visually assessed for insect mortality.

[5] = system: cotton melon aphid (Aphis gossypii); assay: Test D: control of cotton melon aphid on cotton plant, contact and/or systemic
[6] = system: fall armyworm (Spodoptera frugiperda); assay: Test E: control of fall armyworm on maize (corn) plant; details: sprayed at 50 ppm

SMILES: C[n+]1c([O-])c(-c2ccccc2)c(=O)n2ccccc21 [Compound 3]
- control efficacy: mortality (80% or more mortality) ([1]; sprayed at 250 ppm): ≥ 80%
- control efficacy: mortality (80% or more mortality) ([2]; sprayed at 250 ppm): ≥ 80%

SMILES: CCC[n+]1c([O-])c(Oc2ccccc2)c(=O)n2ccccc21 [Compound 4, 2-hydroxy-4-oxo-3-phenoxy-1-propyl-4H-pyrido[1,2-a]pyrimidinium inner salt]
- control efficacy: mortality (80% or more mortality) ([1]; sprayed at 250 ppm): ≥ 80%

SMILES: O=c1c(-c2cccc(OC(F)(F)F)c2)c([O-])[n+](Cc2ccc(Cl)cc2)c2ccccn12 [Compound 21]
- control efficacy: feeding damage (40% or less feeding damage and/or 100% mortality) ([3]; sprayed at 250 ppm): ≤ 40%

SMILES: N#CCOc1cccc(-c2c([O-])[n+](CC(F)(F)F)c3ccccn3c2=O)c1 [Compound 37, 3-[3-(cyanomethoxy)phenyl]-2-hydroxy-4-oxo-1-(2,2,2-trifluoroethyl)-4H-pyrido[1,2-a]pyrimidinium inner salt]
- control efficacy: mortality (80% or more mortality) ([1]; sprayed at 50 ppm): ≥ 80%
- control efficacy: mortality (80% or more mortality) ([1]; sprayed at 250 ppm): ≥ 80%

SMILES: O=C(NCC(F)(F)F)c1cccc(-c2c([O-])[n+](Cc3ccc(Cl)nc3)c3ccccn3c2=O)c1 [Compound 42]
- control efficacy: mortality (80% or more mortality) ([1]; sprayed at 50 ppm): ≥ 80%
- control efficacy: mortality (80% or more mortality) ([1]; sprayed at 250 ppm): ≥ 80%

SMILES: N#CCOc1cccc(-c2c([O-])[n+](Cc3ccc(Cl)nc3)c3ccccn3c2=O)c1 [Compound 43]
- control efficacy: mortality (80% or more mortality) ([1]; sprayed at 50 ppm): ≥ 80%
- control efficacy: mortality (80% or more mortality) ([1]; sprayed at 250 ppm): ≥ 80%
- control efficacy: mortality (80% or more mortality) ([2]; sprayed at 50 ppm): ≥ 80%
- control efficacy: mortality (80% or more mortality) ([2]; sprayed at 250 ppm): ≥ 80%

SMILES: O=c1c(-c2cc(F)cc(OCc3ccc(Cl)nc3)c2)c([O-])[n+](CC(F)(F)F)c2ccccn12 [Compound 46]
- control efficacy: feeding damage (40% or less feeding damage and/or 100% mortality) ([3]; sprayed at 50 ppm): ≤ 40%

SMILES: O=c1c(-c2cccc(OCc3ccc(Cl)nc3)c2)c([O-])[n+](CC(F)(F)F)c2ccccn12 [Compound 50]
- control efficacy: feeding damage (40% or less feeding damage and/or 100% mortality) ([3]; sprayed at 250 ppm): ≤ 40%
- control efficacy: mortality (80% or more mortality) ([2]; sprayed at 250 ppm): ≥ 80%

SMILES: O=c1c(-c2cccc(OC(F)(F)F)c2)c([O-])[n+](CCc2cccnc2)c2ccccn12 [Compound 52]
- control efficacy: mortality (80% or more mortality) ([1]; sprayed at 250 ppm): ≥ 80%

SMILES: O=c1c(-c2cccc(OCC(F)(F)F)c2)c([O-])[n+](Cc2ccc(Cl)nc2)c2ccccn12 [Compound 55]
- control efficacy: mortality (80% or more mortality) ([1]; sprayed at 50 ppm): ≥ 80%
- control efficacy: mortality (80% or more mortality) ([1]; sprayed at 250 ppm): ≥ 80%
- control efficacy: feeding damage (40% or less feeding damage and/or 100% mortality) ([3]; sprayed at 50 ppm): ≤ 40%
- control efficacy: feeding damage (40% or less feeding damage and/or 100% mortality) ([3]; sprayed at 250 ppm): ≤ 40%
- control efficacy: mortality (80% or more mortality) ([2]; sprayed at 250 ppm): ≥ 80%

SMILES: O=c1c(-c2cccc(OCc3cccc(Cl)n3)c2)c([O-])[n+](CC(F)(F)F)c2ccccn12 [Compound 64]
- control efficacy: feeding damage (40% or less feeding damage and/or 100% mortality) ([3]; sprayed at 50 ppm): ≤ 40%
- control efficacy: feeding damage (40% or less feeding damage and/or 100% mortality) ([3]; sprayed at 250 ppm): ≤ 40%

SMILES: O=c1c(-c2ccccc2)c([O-])[n+](Cc2ccc(Cl)s2)c2ccccn12 [Compound 69]
- control efficacy: feeding damage (40% or less feeding damage and/or 100% mortality) ([3]; sprayed at 50 ppm): ≤ 40%
- control efficacy: feeding damage (40% or less feeding damage and/or 100% mortality) ([3]; sprayed at 250 ppm): ≤ 40%

SMILES: COc1ccc(C[n+]2c([O-])c(-c3ccccc3)c(=O)n3ccccc32)cc1 [Compound 82]
- control efficacy: feeding damage (40% or less feeding damage and/or 100% mortality) ([3]; sprayed at 50 ppm): ≤ 40%

SMILES: O=c1c(C2CCc3ccccc32)c([O-])[n+](Cc2cnc(Cl)s2)c2ccccn12 (centres unmarked) [Compound 85]
- control efficacy: feeding damage (40% or less feeding damage and/or 100% mortality) ([3]; sprayed at 250 ppm): ≤ 40%
- control efficacy: mortality (80% or more mortality) ([2]; sprayed at 50 ppm): ≥ 80%
- control efficacy: mortality (80% or more mortality) ([2]; sprayed at 250 ppm): ≥ 80%

SMILES: O=c1c(-c2cccc(C3CC(Br)=NO3)c2)c([O-])[n+](Cc2cnc(Cl)s2)c2ccccn12 (centres unmarked) [Compound 87]
- mortality (at least 80% mortality) [4]: at least 80%
- control efficacy: mortality (80% or more mortality) ([1]; sprayed at 50 ppm): ≥ 80%
- control efficacy: feeding damage (40% or less feeding damage and/or 100% mortality) ([3]; sprayed at 50 ppm): ≤ 40%
- control efficacy: mortality (80% or more mortality) ([2]; sprayed at 50 ppm): ≥ 80%

SMILES: CC1=NOC(c2cccc(-c3c([O-])[n+](Cc4cnc(Cl)s4)c4ccccn4c3=O)c2)C1 (centres unmarked) [Compound 88, 1-[(2-chloro-5-thiazolyl)methyl]-3-[3-(4,5-dihydro-3-methyl-5-isoxazolyl)phenyl]-2-hydroxy-4-oxo-4H-pyrido[1,2-a]pyrimidinium inner salt]
- mortality (at least 80% mortality) [4]: at least 80%
- control efficacy: mortality (80% or more mortality) ([1]; sprayed at 50 ppm): ≥ 80%
- control efficacy: feeding damage (40% or less feeding damage and/or 100% mortality) ([3]; sprayed at 50 ppm): ≤ 40%
- control efficacy: mortality (80% or more mortality) ([2]; sprayed at 50 ppm): ≥ 80%

SMILES: O=c1c(-c2ccccc2)c([O-])[n+](CC2OCCO2)c2ccccn12 [Compound 90]
- control efficacy: mortality (80% or more mortality) ([1]; sprayed at 250 ppm): ≥ 80%
- control efficacy: mortality (80% or more mortality) ([2]; sprayed at 250 ppm): ≥ 80%

SMILES: O=c1c(-c2ccccc2)c([O-])[n+](CC2COCCO2)c2ccccn12 (centres unmarked) [Compound 91]
- control efficacy: mortality (80% or more mortality) ([1]; sprayed at 250 ppm): ≥ 80%

SMILES: CON=C(C)c1cccc(-c2c([O-])[n+](Cc3cnc(Cl)s3)c3ccccn3c2=O)c1 [Compound 92]
- mortality (at least 80% mortality) ([5]; sprayed at 50 ppm): at least 80%
- mortality (at least 80% mortality) ([5]; sprayed at 250 ppm): at least 80%
- mortality (at least 80% mortality) [4]: at least 80%
- control efficacy: mortality (80% or more mortality) ([1]; sprayed at 50 ppm): ≥ 80%
- control efficacy: feeding damage (40% or less feeding damage and/or 100% mortality) ([3]; sprayed at 50 ppm): ≤ 40%
- control efficacy: feeding damage (40% or less feeding damage and/or 100% mortality) ([3]; sprayed at 250 ppm): ≤ 40%
- control efficacy: feeding damage (40% or less feeding damage and/or 100% mortality) [6]: ≤ 40%
- control efficacy: mortality (80% or more mortality) ([2]; sprayed at 50 ppm): ≥ 80%

SMILES: O=c1c(SC(F)(F)F)c([O-])[n+](Cc2cnc(Cl)s2)c2ccccn12 [Compound 102]
- mortality (at least 80% mortality) ([5]; sprayed at 250 ppm): at least 80%
- mortality (at least 80% mortality) [4]: at least 80%
- control efficacy: mortality (80% or more mortality) ([1]; sprayed at 50 ppm): ≥ 80%
- control efficacy: feeding damage (40% or less feeding damage and/or 100% mortality) ([3]; sprayed at 50 ppm): ≤ 40%
- control efficacy: mortality (80% or more mortality) ([2]; sprayed at 50 ppm): ≥ 80%

SMILES: O=c1c(SC(F)(F)F)c([O-])[n+](Cc2ccc(Cl)nc2)c2ccccn12 [Compound 105]
- mortality (at least 80% mortality) ([5]; sprayed at 250 ppm): at least 80%
- mortality (at least 80% mortality) [4]: at least 80%
- control efficacy: mortality (80% or more mortality) ([1]; sprayed at 50 ppm): ≥ 80%

SMILES: O=c1c(SC(F)(F)F)c([O-])[n+](CC(F)(F)F)c2ccccn12 [Compound 106]
- control efficacy: mortality (80% or more mortality) ([2]; sprayed at 50 ppm): ≥ 80%

SMILES: N#CCc1cccc(-c2c([O-])[n+](Cc3cnc(Cl)s3)c3ccccn3c2=O)c1 [Compound 107]
- mortality (at least 80% mortality) ([5]; sprayed at 50 ppm): at least 80%
- control efficacy: mortality (80% or more mortality) ([1]; sprayed at 50 ppm): ≥ 80%
- control efficacy: feeding damage (40% or less feeding damage and/or 100% mortality) ([3]; sprayed at 50 ppm): ≤ 40%
- control efficacy: mortality (80% or more mortality) ([2]; sprayed at 50 ppm): ≥ 80%

SMILES: N#CCc1ccc(-c2c([O-])[n+](Cc3cnc(Cl)s3)c3ccccn3c2=O)cc1 [Compound 113]
- control efficacy: mortality (80% or more mortality) ([1]; sprayed at 50 ppm): ≥ 80%
- control efficacy: feeding damage (40% or less feeding damage and/or 100% mortality) ([3]; sprayed at 50 ppm): ≤ 40%
- control efficacy: feeding damage (40% or less feeding damage and/or 100% mortality) [6]: ≤ 40%
- control efficacy: mortality (80% or more mortality) ([2]; sprayed at 50 ppm): ≥ 80%

SMILES: Nc1cccc(-c2c([O-])[n+](Cc3cnc(Cl)s3)c3ccccn3c2=O)c1 [Compound 115]
- control efficacy: feeding damage (40% or less feeding damage and/or 100% mortality) ([3]; sprayed at 50 ppm): ≤ 40%

SMILES: CC(C)(C)[Si](C)(C)Oc1cccc(-c2c([O-])[n+](Cc3cnc(Cl)s3)c3ccccn3c2=O)c1 [Compound 117]
- control efficacy: feeding damage (40% or less feeding damage and/or 100% mortality) ([3]; sprayed at 50 ppm): ≤ 40%
- control efficacy: feeding damage (40% or less feeding damage and/or 100% mortality) [6]: ≤ 40%

SMILES: CC(C)[Si](Oc1cccc(-c2c([O-])[n+](Cc3cnc(Cl)s3)c3ccccn3c2=O)c1)(C(C)C)C(C)C [Compound 118]
- control efficacy: feeding damage (40% or less feeding damage and/or 100% mortality) ([3]; sprayed at 50 ppm): ≤ 40%
- control efficacy: feeding damage (40% or less feeding damage and/or 100% mortality) [6]: ≤ 40%

SMILES: CCOC(=O)Oc1cccc(-c2c([O-])[n+](Cc3cnc(Cl)s3)c3ccccn3c2=O)c1 [Compound 119]
- control efficacy: feeding damage (40% or less feeding damage and/or 100% mortality) ([3]; sprayed at 50 ppm): ≤ 40%
- control efficacy: mortality (80% or more mortality) ([2]; sprayed at 50 ppm): ≥ 80%

SMILES: O=C(Cc1c(F)cccc1F)c1c([O-])[n+](Cc2cnc(Cl)s2)c2ccccn2c1=O [Compound 123]
- control efficacy: mortality (80% or more mortality) ([1]; sprayed at 50 ppm): ≥ 80%
- control efficacy: mortality (80% or more mortality) ([2]; sprayed at 50 ppm): ≥ 80%
